# Reference: article PMC5062570 (Nature Communications, 2016)
# Entries after “also recorded” stand apart in the source; their conditions may differ.
# Legend:
# [1] = system: CatD protein in mouse brain; experiment: CatD western blot of brain homogenates from dosed mice; format: in vivo; settings: 80 mg kg-1 daily, 30 days
# [2] = system: RPE tissue proteins; experiment: Proteomic analysis (peptide spectral matches) of RPE tissue from dosed rats; format: in vivo, rat; settings: for High? / Low?: direction of change in PF-9283-treated vs vehicle rat RPE; for PF-9283 avg. # PSM: three PF-9283-treated rats, two technical replicates; for Hit?: significant difference vehicle vs PF-9283, two-tailed t-test
# [3] = protein 4F2 cell-surface antigen heavy chain (Q794F9), rat RPE, 80 mg kg-1 daily, 14 days
# [4] = protein Annexin A6 (P48037), rat RPE, 80 mg kg-1 daily, 14 days
# [5] = protein Apolipoprotein A-I (P04639), rat RPE, 80 mg kg-1 daily, 14 days
# [6] = protein Cathepsin D (Q6P6T6), rat RPE, 80 mg kg-1 daily, 14 days
# [7] = protein Cytochrome c oxidase subunit 6C-2 (P11951), rat RPE, 80 mg kg-1 daily, 14 days
# [8] = protein Guanine nucleotide-binding protein G(o) subunit alpha (D4ABT0), rat RPE, 80 mg kg-1 daily, 14 days
# [9] = protein Isoform 3 of NADH-cytochrome b5 reductase 3 (P20070-3), rat RPE, 80 mg kg-1 daily, 14 days
# [10] = protein Serine (or cysteine) proteinase inhibitor, clade H, member 1 (Q5RJR9), rat RPE, 80 mg kg-1 daily, 14 days
# [11] = protein Sulfated glycoprotein 1 (P10960), rat RPE, 80 mg kg-1 daily, 14 days
# [12] = protein Transgelin (P31232), rat RPE, 80 mg kg-1 daily, 14 days
# [13] = protein Tyrp1 (D3ZH71), rat RPE, 80 mg kg-1 daily, 14 days
# [14] = protein: Isoform 3 of NADH-cytochrome b5 reductase 3 (P20070-3)
smiles,measurement,setting,value
Cc1cc([C@H]2C[C@H]3[C@@H](C)SC(N)=N[C@@]3(c3ccc(F)cc3F)CO2)on1 [PF-9283],CatD protein level in mouse brain (western blot),[1],"significantly increased levels of CatD protein; also recorded: increased levels of CatD heavy and light chains, but not the CatD single chain"
same,PF-9283/Veh. PSM,[2]; [3],0.41
same,PF-9283 Avg. # PSM,[2]; [3],6.8
same,PF-9283/Veh. PSM,[2]; [4],0.61
same,PF-9283 Avg. # PSM,[2]; [4],9.0
same,PF-9283/Veh. PSM,[2]; [5],1.57
same,PF-9283 Avg. # PSM,[2]; [5],7.8
same,PF-9283/Veh. PSM,[2]; [6],1.69
same,PF-9283 Avg. # PSM,[2]; [6],85.5
same,PF-9283/Veh. PSM,[2]; [7],0.60
same,PF-9283 Avg. # PSM,[2]; [7],5.0
same,PF-9283/Veh. PSM,[2]; [8],0.64
same,PF-9283 Avg. # PSM,[2]; [8],14.8
same,PF-9283/Veh. PSM,[2]; [9],0.65
same,PF-9283 Avg. # PSM,[2]; [9],6.2
same,PF-9283/Veh. PSM,[2]; [10],0.59
same,PF-9283 Avg. # PSM,[2]; [10],17.7
same,PF-9283/Veh. PSM,[2]; [11],1.75
same,PF-9283 Avg. # PSM,[2]; [11],52.5
same,PF-9283/Veh. PSM,[2]; [12],1.52
same,PF-9283 Avg. # PSM,[2]; [12],26.3
same,PF-9283/Veh. PSM,[2]; [13],0.60
same,PF-9283 Avg. # PSM,[2]; [13],5.7
same,High? / Low?,[2]; protein: Cathepsin D (Q6P6T6),high
same,PF-9283/Veh. PSM,"[2]; protein: Cathepsin D (Q6P6T6), rat RPE tissue, ratio of average PSM",1.69
same,PF-9283 avg. # PSM,"[2]; protein: Cathepsin D (Q6P6T6), rat RPE tissue",85.5
same,Hit?,[2]; protein: Cathepsin D (Q6P6T6),Hit
same,High? / Low?,[2]; protein: Ezrin (P31977),low
same,PF-9283/Veh. PSM,"[2]; protein: Ezrin (P31977), rat RPE tissue, ratio of average PSM",0.84
same,PF-9283 avg. # PSM,"[2]; protein: Ezrin (P31977), rat RPE tissue",29.7
same,Hit?,[2]; protein: Ezrin (P31977),Hit
same,High? / Low?,[2]; [14],low
same,PF-9283/Veh. PSM,"[2]; protein: Isoform 3 of NADH-cytochrome b5 reductase 3 (P20070-3), rat RPE tissue, ratio of average PSM",0.65
same,PF-9283 avg. # PSM,"[2]; protein: Isoform 3 of NADH-cytochrome b5 reductase 3 (P20070-3), rat RPE tissue",6.2
same,Hit?,[2]; [14],Hit
same,High? / Low?,[2]; protein: Transgelin (P31232),high
same,PF-9283/Veh. PSM,"[2]; protein: Transgelin (P31232), rat RPE tissue, ratio of average PSM",1.52
same,PF-9283 avg. # PSM,"[2]; protein: Transgelin (P31232), rat RPE tissue",26.3
same,Hit?,[2]; protein: Transgelin (P31232),Hit
same,"Increase in CatD in rat RPE (PSM, versus vehicle)","[2]; rats, 80 mg kg-1 daily, 14 days",1.7 fold
